Laboratory results: PubChem BioAssay AID652259 (Drosophila RNAi Screening Center, 2013)
Purpose: 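Identify new Wingless signalling regulators in fly cells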 (primary screen). Cell system: Drosophila clone 8 imaginal disc epithelial cells. Reagent: long dsRNA against Drosophila genes. Conditions: pathway stimulated by co-transfected Wingless expression plasmid. Detection: 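Dual luciferase reads per well after Wingless plasmid stimulation: reporter firefly light and Renilla control light; activity is firefly divided by Renilla, a ratio not deposited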. Direction: firefly reporter light: higher = more Wg reporter light, before normalisation; Renilla control light: higher = more transfected or surviving cells. Call rule: 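Strong candidates differ from their plate mean by at least two out of four per-plate statistical tests; weak candidates meet just one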. Calls: active = candidate regulator (raises or lowers reporter); inactive = not a candidate.
In all, the deposit lists about 22,000 reagents; below is a random part of those with a known target gene and a result. Of all reagents, 233 (1.1%) are marked active. 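Light values are raw, unnormalised plate reads; the ratio scores behind the reporter calls were not deposited.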 Entries without a mark were called inactive. Reagents against one gene are numbered here. A plus sign joins genes that one reagent is predicted to hit. Not given: the amount of reagent, the time to read-out, the dose of the treatment.

Gene | reagent | reporter change call, replicate 1 | firefly reporter light, replicate 1 | firefly reporter light, replicate 2 | Renilla control light, replicate 1 | Renilla control light, replicate 2
Nepl15 | 1 | – | 1792 | 5307 | 1207 | 2417
mbc | 1 | – | 12531 | – | 11724 | –
Vlet | 1 | – | 4521 | 9728 | 746 | 2736
Rad9 | 1 | – | 5914 | – | 2387 | –
Cyp4g15 | 1 | – | 18520 | – | 7573 | –
CG31262 | 1 | – | 4992 | – | 1784 | –
BORCS7 + CG13430 | 1 | – | 10832 | – | 2945 | –
BORCS7 + CG13430 | 2 | – | 4661 | – | 2301 | –
CG18682 (retired record) | 1 | – | 8131 | – | 3316 | –
CG18682 (retired record) | 2 | – | 6208 | – | 2934 | –
CG12507 | 1 | – | 16464 | – | 8416 | –
PH4alphaSG2 | 1 | – | 3958 | – | 2297 | –
CG32638 | 1 | – | 6297 | – | 1285 | –
CG11808 | 1 | – | 15353 | – | 2885 | –
CG42810 | 1 | – | 1213 | 4608 | 848 | 2212
CG9072 | 1 | – | 23100 | – | 11525 | –
Vha100-5 | 1 | – | 2498 | 4955 | 1122 | 1920
scyl | 1 | – | 9097 | – | 3506 | –
CG43132 (retired record) | 1 | – | 25622 | – | 11848 | –
CG30183 | 1 | – | 1808 | 6795 | 720 | 2349
CG30183 | 2 | – | 2810 | 10305 | 656 | 2864
Alp5 | 1 | – | 2986 | 6365 | 1346 | 2022
CG4465 | 1 | – | 20050 | – | 4793 | –
CG3348 | 1 | – | 7317 | – | 5075 | –
CSN5 | 1 | – | 5394 | 10704 | 2029 | 4442
CSN5 | 2 | – | 7.79e5 | 7.51e5 | 3.35e5 | 3.46e5
CG13722 | 1 | – | 1848 | 9667 | 700 | 3085
CG13722 | 2 | – | 9.22e5 | 7.49e5 | 9.69e5 | 4.63e5
CG4570 | 1 | – | 15706 | – | 2125 | –
CG31869 | 1 | – | 2020 | 4688 | 871 | 2837
CG31869 | 2 | – | 3824 | 7693 | 1458 | 3506
CG4972 | 1 | – | 2752 | 6522 | 663 | 2544
CG14180 (retired record) | 1 | – | 7462 | – | 1780 | –
can | 1 | – | 1997 | – | 892 | –
Vhl | 1 | – | 3861 | – | 1938 | –
Lim3 | 1 | – | 6476 | 10000 | 1634 | 4598
Lim3 | 2 | Wg reporter activity raised (active) | 6890 | 15733 | 489 | 1436
Lim3 | 3 | – | 8.80e5 | 7.80e5 | 1.15e5 | 1.07e5
Lim3 | 4 | – | 4.76e5 | 4.52e5 | 56007 | 44997
Cyp28d2 | 1 | – | 3572 | 6170 | 1137 | 1968
Psf2 | 1 | – | 2680 | 6387 | 1221 | 2651
Srrm234 | 1 | – | 3577 | – | 1296 | –
Srrm234 | 2 | – | 11764 | – | 2806 | –
CG7706 | 1 | – | 2544 | 3719 | 1235 | 770
elg1 | 1 | – | 3314 | – | 1627 | –
CG14265 | 1 | – | 23739 | – | 23352 | –
Cog3 | 1 | – | 10681 | – | 3739 | –
Or22a | 1 | – | 6161 | 10422 | 987 | 2276
CG15530 | 1 | – | 9460 | – | 3424 | –
Obp47b + CG7741 | 1 | Wg reporter activity raised | 10115 | – | 2899 | –
CR33317 | 1 | – | 3399 | 9260 | 1120 | 2964
bowl | 1 | – | 9192 | – | 4269 | –
CAH4 | 1 | – | 7.16e5 | 7.81e5 | 3.44e5 | 3.45e5
fs(2)ltoPP43 | 1 | – | 2850 | 5572 | 480 | 2100
mRpS7 | 1 | – | 12288 | – | 1584 | –
CG31326 | 1 | – | 10532 | – | 2252 | –
Upf1 | 1 | – | 2900 | 6794 | 1248 | 2865
CG43092 | 1 | – | 1882 | – | 819 | –
CG18542 + CG32939 | 1 | – | 6064 | – | 2217 | –
Teh2 | 1 | – | 6893 | – | 2832 | –
JhI-21 | 1 | – | 12964 | – | 4342 | –
CG9747 | 1 | – | 3056 | 7793 | 1098 | 1756
CG5167 | 1 | – | 16912 | – | 3200 | –
sei | 1 | – | 6283 | – | 1894 | –
Nup160 + RfC38 | 1 | – | 4790 | – | 2306 | –
Kdm2 | 1 | – | 6357 | – | 2343 | –
CG33116 | 1 | – | 7762 | – | 3488 | –
s-cup | 1 | – | 5434 | – | 1467 | –
s-cup | 2 | – | 5684 | – | 2451 | –
CG2931 | 1 | – | 13008 | – | 3936 | –
obst-A | 1 | – | 3229 | 10946 | 1284 | 3719
Had1 | 1 | – | 18983 | – | 7019 | –
fz3 | 1 | – | 25524 | – | 16512 | –
ssp6 | 1 | – | 3831 | – | 1413 | –
ssp6 | 2 | – | 1472 | 8996 | 953 | 2410
CG15710 | 1 | – | 6563 | – | 2280 | –
CG5188 | 1 | – | 2364 | 6881 | 802 | 2240
Jheh1 | 1 | – | 7500 | – | 2860 | –
FMRFaR | 1 | – | 5755 | – | 2633 | –
CG3609 | 1 | – | 2338 | 5637 | 925 | 2368
CG31068 | 1 | – | 3680 | – | 1767 | –
CG9312 | 1 | – | 8017 | – | 3424 | –
CG1227 | 1 | – | 5397 | – | 2336 | –
His-Psi:CR31616 + His-Psi:CR31615 | 1 | Wg reporter activity raised (active) | 20461 | – | 2507 | –
CG15605 | 1 | – | 6235 | – | 2455 | –
CG8026 | 1 | – | 11280 | 7.96e5 | 1652 | 3.61e5
CG8026 | 2 | – | 2849 | 9634 | 752 | 3569
CG9705 | 1 | – | 12642 | – | 4492 | –
mEFTu1 | 1 | – | 16729 | – | 4597 | –
CG14810 | 1 | – | 2519 | – | 1387 | –
CG14810 | 2 | – | 21120 | – | 14871 | –
ND-B14.7 | 1 | – | 2362 | 6468 | 802 | 2896
CG13058 | 1 | – | 8240 | – | 3872 | –

Records listed so far called active, once more:
Gene | reagent | reporter change call, replicate 1 | firefly reporter light, replicate 1 | firefly reporter light, replicate 2 | Renilla control light, replicate 1 | Renilla control light, replicate 2
Lim3 | 2 | Wg reporter activity raised (active) | 6890 | 15733 | 489 | 1436
His-Psi:CR31616 + His-Psi:CR31615 | 1 | Wg reporter activity raised (active) | 20461 | – | 2507 | –
